From patent US20250152724A1, “ANTIBODY CONJUGATES SPECIFIC FOR MUCIN-1 AND METHODS OF USE THEREOF” (R.P. Scherer Technologies, LLC, priority 2022, published 2025)
Where a chain is given by its changes, count along the chain named. Some results were stated once for a whole list of compounds, not compound by compound.

B1: MUC1 gB06: anti-MUC1 monoclonal antibody; VH SEQ ID NO:1, VL SEQ ID NO:2 (antibody, V domains shown)
VH: EVQLVQSGAEVKKPGATVKISCKVSGYTFTDHTMHWIKQRPGKGLEWMGYFYPRDDSTNYNEKFKGRVTLTADKSTDTAYMELSSLRSEDTAVYYCARGLRYALDYWGQGTLVTVSS
VL: EIVLTQSPATLSLSPGERATLSCRASSSVSSSYLYWYQQKPGQAPRLWIYGTSNLASGVPARFSGSGSGTDYTLTISSLEPEDAAVYYCHQYAWSPPTFGQGTKLEIK
B2: MUC1 G12: anti-MUC1 monoclonal antibody; VH SEQ ID NO:1, VL SEQ ID NO:3 (antibody, V domains shown)
VH: B1 VH
VL: B1 VL with S30G, Y33N, G51R, T52S, S53T, N54K, A93R

Assay: analytical size exclusion chromatography (SEC) to determine aggregation
Format: physicochemical
Conditions: unconjugated antibodies; mobile phase 300 mM NaCl, 25 mM sodium phosphate pH 6.8
Method: SEC HPLC: To determine aggregation, samples were analyzed using analytical size exclusion chromatography (SEC; Tosoh #08541) with a mobile phase of 300 mM NaCl, 25 mM sodium phosphate pH 6.8.
Methods. Antibodies (15 mg/mL) bearing one aldehyde tag were conjugated to linker-payloads at 1.1 mM, respectively. Reactions proceeded for 72 h at 37° C. in 20 mM sodium citrate, 50 mM NaCl pH 5.5 (20/50 buffer) containing 0.85-2.5% DMA. After conjugation, free drug was removed using a 30 kD MWCO 0.5 mL Amicon spin concentrator. Samples were added to the spin concentrator, centrifuged at 15,000×g for 7 min, then diluted with 450 μL 20 mM sodium citrate, 50 mM NaCl pH 5.5 and centrifuged again. The process was repeated 10 times. To determine the DAR of the final product, ADCs were examined by analytical chromatography using hydrophobic interaction (HIC) (Tosoh #14947) or PLRP-RP (Agilent PL1912-1802 1000A, 8 μm, 50×2.1 mm) columns. HIC analysis used mobile phase A: 1.5 M ammonium sulfate, 25 mM sodium phosphate pH 7.0, and mobile phase B: 25% isopropanol, 18.75 mM sodium phosphate pH 7.0. […] To determine aggregation, samples were analyzed using analytical size exclusion chromatography (SEC; Tosoh #08541) with a mobile phase of 300 mM NaCl, 25 mM sodium phosphate pH 6.8 with 5% isopropanol.

Molecule	monomeric as determined by SEC
B1	more than 99%
B2	more than 99%
